Measured values from PubChem BioAssay AID1671190 (National Center for Advancing Translational Sciences (NCATS), 2021).
“And” between values parts separate entries of the source, which are not always exact repeats. Identical values can stand only once. In all, about 580,000 compounds went through this assay and about 6,100 (1.1%) were called active. This list was built around the results that the source calls inconclusive (neither active nor inactive); the mix of calls is not that of the screen. Calls follow the shape of the dose curve; as a rule, active = well fitted inhibition curve with a large enough effect; inconclusive = small, poorly fitted or top-dose-only effect, or another doubt; inactive = no such curve, though single readings can be large or run the other way. Potencies of inconclusive entries are doubtful fits and often do not repeat.

Sequences of proteins named here, by UniProt entry; tags and fusion partners are left off. A change or cut given only in a name is not applied to a line headed by its entry.
UniProt P18054: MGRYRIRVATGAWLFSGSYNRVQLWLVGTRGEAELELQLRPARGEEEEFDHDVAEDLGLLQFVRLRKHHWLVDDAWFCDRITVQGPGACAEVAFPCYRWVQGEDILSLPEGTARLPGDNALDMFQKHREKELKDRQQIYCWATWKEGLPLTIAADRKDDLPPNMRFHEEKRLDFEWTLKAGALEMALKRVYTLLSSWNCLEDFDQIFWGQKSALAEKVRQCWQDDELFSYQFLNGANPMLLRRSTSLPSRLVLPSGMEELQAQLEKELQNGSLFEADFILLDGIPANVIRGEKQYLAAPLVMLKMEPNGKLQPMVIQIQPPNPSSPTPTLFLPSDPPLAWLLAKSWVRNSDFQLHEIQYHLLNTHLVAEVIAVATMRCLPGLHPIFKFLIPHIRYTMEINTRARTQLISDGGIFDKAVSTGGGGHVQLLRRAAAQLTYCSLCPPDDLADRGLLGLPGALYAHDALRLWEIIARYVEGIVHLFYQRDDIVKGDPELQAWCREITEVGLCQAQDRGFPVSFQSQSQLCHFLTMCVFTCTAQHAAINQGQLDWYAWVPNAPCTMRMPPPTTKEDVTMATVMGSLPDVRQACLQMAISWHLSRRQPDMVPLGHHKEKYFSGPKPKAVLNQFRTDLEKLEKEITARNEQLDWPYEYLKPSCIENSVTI

What follows are compounds tested against Polyunsaturated fatty acid lipoxygenase ALOX12 (Homo sapiens) (UniProt P18054) (assay: Primary qHTS assay for inhibitors of human arachidonate 12S-lipoxygenase (ALOX12): Round 2). Settings: purified 12hLO, xylenol orange hydroperoxide absorbance; activity change, negative = inhibition: at 108 µM (top of the series) unless noted.
Excerpt: Assay Provider: Theodore R. Holman Ph.D. University of California, Santa Cruz, California Human lipoxygenase 12hLO is a member of the closely related lipoxygenase family of enzymes which catalyze the site-specific oxidation of arachidonic acid to various hormone precursor molecules and as such is a candidate for drug development in a variety of disease areas, such as cancer and inflammation. Inhibition of 12hLO activity was screened by utilizing arachidonic acid as a substrate. The extent of hydroperoxide product formation was measured by a secondary chromogenic reaction in which xylenol orange (XO, Sigma-Aldrich, cat. number 39,818-7) reacts with the ferric ions produced from the reaction between the hydroperoxide and ferrous ions. The Fe (III)-XO complex is characterized with red-shifted absorbance at 560 nm. A purified preparation of human 12hLO was supplied by Dr. Holman laboratory, University of California, Santa Cruz.
PROTOCOL TABLE SEQUENCE No. (e.g., 1, 2, 3, etc.); […] (e.g., Cells, Incubation, Reagent, etc.); VALUE; DESCRIPTION 1; Enzyme; 3 uL; 150 nM 12hLO enzyme solution dispensed in 1536-well Greiner black, clear bottom plates. 2; Compound; 23 nL; compounds and controls were added. 3; Incubate; 15 min; room temperature. 4; Substrate; 1 uL; 40 uM arachidonic acid (final concentration). 5; Incubate; 30 min; room temperature. 6; Reagent; 4 uL; Fe-XO solution was added to each well. 7; Incubation; 30 min; room temperature 8; Detector; absorbance; Read 1 at 405 nm absorbance using ViewLux (Perkin-Elmer) CCD imager. 9; Detector; absorbance; Read 2 at 573 nm absorbance using ViewLux (Perkin-Elmer) CCD imager. NOTES (numbers refer to sequence above) 1; 150 nM 12hLO (final concentration) in buffer solution (25 mM Hepes, 0.01% Triton X-100, pH 7.0) was dispensed in columns 1, 2, 5-48. Column 1 is neutral (100% activity). Buffer only was dispensed in columns 3 and 4 as no enzyme negative controls. The plates were covered with metal lids with gas-exchange holes. 2; Compounds were pin transferred via a Kalypsys Pin Tool (Wako USA) in column 5-48. Control compound was transferred in column 2, titration of nordihydroguaiaretic acid (NDGA, Sigma-Aldrich, N5023) with top concentration of 20 mM in DMSO then 1:3 dilution in duplicate. Dilution factor of 23 nL into 4 uL final assay volume. 3; Covered assay plates were incubated for 15 min at room temperature. 4; Substrate was added to start the reaction; 40 uM arachidonic acid (Sigma-Aldrich, St. Louis, MO) was dispensed throughout the plate. 6; Chromogenic detection reagent solution (divalent iron/xylenol orange, Fe-XO) was added to each well: 200 uM xylenol orange, 300 uM ferrous ammonium sulfate prepared freshly in 50 mM sulfuric acid. 8, 9; Two absorbance readouts were obtained at 405 nm and at 573 nm using a ViewLux high-throughput CCD plate imager (Perkin-Elmer). The 573 to 405 (Read 2 / Read 1) absorbance ratio was used to compute reaction progress.
% is scaled to controls: 0 for no effect and ±100 for the full control effect; potency is read from the fitted curve at half-maximal effect.

Row | SMILES | activity change, negative = inhibition | Potency
1 | Cc1ccc(S(=O)(=O)Nc2ccc(N(C)C)cc2)cc1 | inactive: -4.24% | 
2 | NCCN=C1NS(=O)(=O)c2ccccc21 |  | inconclusive: 0.794 µM [inhibitor, partial curve, poor fit]
3 | COc1ccc(CNC(=O)Cn2nc(C)c3c(C)n(-c4ccccc4)nc3c2=O)cc1OC | inactive: 2.11% | 
4 | NC(=O)c1cc(Sc2ccc3c(c2)OCCCO3)nc2ccccc12 |  | inconclusive: 28.2 µM [inhibitor, single point]
5 | O=C(CSc1nc2cc(S(=O)(=O)N3CCOCC3)ccc2o1)NC1CCCc2ccccc21 (configuration not stated) | inactive: 0.718% | 
6 | O=C(Nc1ccccc1)C(Sc1cccc[n+]1[O-])c1ccccc1 (configuration not stated) |  | inconclusive: 44.7 µM [inhibitor, partial curve, poor fit]
7 | CC(=O)Nc1ccc(NC(=O)COc2cc(O)c3c(=O)cc(-c4ccccc4)oc3c2)cc1 | inactive: -11.7% | 
8 | FC(F)(F)c1ccc(-c2noc(CN3CCCN(C4CCCCC4)CC3)n2)cc1 |  | inconclusive: 35.5 µM [inhibitor, single point]
9 | CCOc1cc(=O)n2c(c1C(=O)Nc1ccc(C)c(F)c1)CCCC2 | inactive: 22.8% | 
10 | c1ccc(C2CC(c3cccs3)=NN2c2ccccc2)cc1 (configuration not stated) |  | inconclusive: 44.7 µM [inhibitor, partial curve, poor fit]
11 | Cn1nc(C(=O)Nc2ccc(OCC(N)=O)cc2)c2ccccc2c1=O | inconclusive: -34.2% [inhibitor] | 
12 | CCCCC(CC)CN=C(N)NC(N)=NCCCCCCN=C(N)NC(N)=NCC(CC)CCCC (configuration not stated) |  | inconclusive: 18.1 µM [inhibitor, single point] and inconclusive: 31.6 µM [inhibitor, partial curve, poor fit]
13 | O=C(NNC1=Nc2cccc3cccc1c23)c1ccc(Br)cc1 |  | inconclusive: 44.7 µM [inhibitor, partial curve, poor fit]
14 | CCOc1cnn(-c2ccccc2)c(=O)c1Cl | inactive: 229% | 
15 | c1ccc(-c2cc3c(cn2)CN(Cc2c[nH]c4ccccc24)CCN3)cc1 |  | inconclusive: 44.7 µM [inhibitor, full curve]
16 | Cc1cccc(C(C)NNC(=O)C(O)(c2cccc(C)c2)c2cccc(C)c2)c1 (configuration not stated) | inactive: -5.69% | 

Row | SMILES | activity change, negative = inhibition | Potency
17 | CN(C)CCn1c(=O)n(Cc2ccccc2)c(=O)c2c3c(sc21)CCCCC3 |  | inconclusive: 100 µM [inhibitor, single point]
18 | O=C(COC(=O)c1ncc(Cl)c(Cl)c1Cl)Nc1ccc(Cl)cn1 |  | inconclusive: 50.1 µM [inhibitor, partial curve]
19 | COc1ccc(N(CC(=O)NCc2ccc(Cl)cc2)S(=O)(=O)c2c(C)noc2C)cc1 |  | inconclusive: 126 µM [inhibitor, partial curve, poor fit]
20 | Cc1ccc(Cl)cc1NC(=O)CCS(=O)(=O)c1ccc2c(c1)n(C)c(=O)c(=O)n2C |  | inconclusive: 112 µM [inhibitor, single point]
21 | COc1cc(CNCCc2c[nH]c3ccccc23)cc(Cl)c1OCC(N)=O |  | inconclusive: 112 µM [inhibitor, single point]
22 | Cc1cc2nnc(SC(C)C#N)n2c2ccccc12 (configuration not stated) |  | inconclusive: 35.5 µM [inhibitor, partial curve, poor fit]
23 | O=C(Nc1ccc(Cl)cc1)c1cc2c(-c3ccccc3)nn(-c3ccccc3)c2s1 |  | inconclusive: 56.2 µM [inhibitor, partial curve, poor fit]
24 | C/C(CC(C)C)=N\NC(=O)c1ccc(Cl)cc1 | inactive: 30% | 
25 | CCOC(=O)c1ccc(NC(=S)NCCCN2CCCC2=O)cc1 | inactive: -26.6% | 
26 | CC(C)(C)C(=O)N1CCN(c2ccc([N+](=O)[O-])cc2Cl)CC1 |  | inconclusive: 89.1 µM [inhibitor, single point]
27 | CCOC(=O)Cc1csc(NC(=O)CN2C(=O)c3ccccc3S2(=O)=O)n1 |  | inconclusive: 56.2 µM [inhibitor, partial curve, poor fit]
28 | Cc1ccc(C(=O)CNc2ccc(C)cc2C)cc1 |  | inconclusive: 39.8 µM [inhibitor, single point]
29 | CCCCCC(=O)N1C[C@@H](O)[C@H](n2cc(C3CC3)nn2)C[C@@H]1c1ccc(Cl)cc1 |  | inconclusive: 79.4 µM [inhibitor, single point]
30 | S=C(NCCc1ccc(Cl)cc1)NC1CC1 |  | inconclusive: 44.7 µM [inhibitor, partial curve, poor fit]
31 | Clc1ccc(Cn2c(-c3cccnc3Cl)nc3ccccc32)cc1 | inactive: 14.5% | 
32 | COc1ccc(N2CCN(C(=O)c3ccc4c(Cl)c5c(nc4c3)CCCC5)CC2)cc1 |  | inconclusive: 35.5 µM [inhibitor, single point] and inconclusive: 63.1 µM [inhibitor, partial curve, poor fit]
